Experimental data: PubChem BioAssay AID504786 (Drosophila RNAi Screening Center, 2011)

Aim: 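Knock-downs reducing HIF reporter induction by the iron chelator DFO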 (primary screen)
System: Drosophila S2 cells with a stable HIF luciferase reporter
Reagent: long dsRNA against Drosophila genes, about 0.2 µg dsRNA per well of a 384-well plate
Time to read-out: three days of knock-down, then 20 h of DFO before reading
Conditions: desferrioxamine (DFO) at 100 µM, an iron chelator that mimics hypoxia, for 20 h
Measurement: 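Firefly luciferase driven by the mouse ldh-a hypoxia-response element, measured after 20 h of 100 µM DFO; z-scores per plate, higher means more signal lost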
Reading the numbers: z-score: higher = stronger loss of HIF reporter signal
In all, the deposit lists about 21,000 reagents; this is a random part of those that have a named target and a result. 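Primary screen; positive scores mean lost reporter signal, so the sign may be inverted from the usual convention.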 Names joined by + are all predicted targets of the reagent. Not all columns of the deposit are shown.

Against ppk9 (pickpocket 9) [DRSC04134] the deposit lists z-score, replicate 1 = -0.2. After knock-down of ppk9 (pickpocket 9) [DRSC04135], the screen gave z-score, replicate 1 = -0.3. After knock-down of CG8617 [DRSC07223], the record shows z-score, replicate 1 = -0.1. With knock-down of UQCR-6.4 (Ubiquinol-cytochrome c reductase 6.4 kDa subunit) [DRSC06454], the screen gave z-score, replicate 1 = -0.1. Knock-down of Pp1alpha-96A (Protein phosphatase 1alpha at 96A) [DRSC16795] resulted in: z-score, replicate 1 = -0.3. Knock-down of CCKLR-17D1 (Cholecystokinin-like receptor at 17D1) [DRSC20010] resulted in: z-score, replicate 1 = -0.3.

Depletion of CCKLR-17D1 (Cholecystokinin-like receptor at 17D1) [DRSC20011] gave: z-score, replicate 1 = -0.1. After knock-down of CCKLR-17D1 (Cholecystokinin-like receptor at 17D1) [DRSC20012], the record shows z-score, replicate 1 = -0.6. Agps (Alkylglycerone phosphate synthase) [DRSC05984] scored z-score, replicate 1 = 0.2. With knock-down of CSN7 (COP9 signalosome subunit 7) [DRSC06807], the record shows z-score, replicate 1 = 2. CSN7 (COP9 signalosome subunit 7) [DRSC06808] scored z-score, replicate 1 = 1.8. CG7849 [DRSC04895] gave z-score, replicate 1 = 0.2.

CG6149 [DRSC10593] scored z-score, replicate 1 = -0.2. With knock-down of CG34012 [DRSC09089], the screen gave z-score, replicate 1 = 1.6. With knock-down of Jon44E (Jonah 44E) [DRSC07216] the results were z-score, replicate 1 = -0.3. Depletion of CG15020 [DRSC08474] resulted in: z-score, replicate 1 = -0.2. Knock-down of Lsp1beta (Larval serum protein 1 beta) [DRSC00757] gave: z-score, replicate 1 = -0.3. Non3 (Novel nucleolar protein 3) [DRSC16359] gave z-score, replicate 1 = -0.3.

For CG15708 [DRSC06579], the values are z-score, replicate 1 = -0.2. Silencing of Ugt305A1 (UDP-glycosyltransferase family 305 member A1) [DRSC08541] came out at: z-score, replicate 1 = -0.3. CG4960 [DRSC15684] gave z-score, replicate 1 = -0.3. For Pbgs (Porphobilinogen synthase) [DRSC09718], the values are z-score, replicate 1 = -0.1. For Eig71Ek [DRSC11158], the entry reads z-score, replicate 1 = -0.3. Against CG42327 [DRSC14936], the entry reads z-score, replicate 1 = 0.7.

CG42327 [DRSC14937] gave z-score, replicate 1 = -0.3. Knock-down of CG7251 [DRSC03039] came out at: z-score, replicate 1 = -0.3. With knock-down of inaF-C [DRSC18902], the record shows z-score, replicate 1 = -0.3. Depletion of CG8229 + CG33199 [DRSC05134] resulted in: z-score, replicate 1 = 0.8. With knock-down of RpS28a (Ribosomal protein S28a) [DRSC15064] the results were z-score, replicate 1 = -0.4. With knock-down of CG11085 [DRSC19374], the screen gave z-score, replicate 1 = -0.2.

Silencing of Dlg5 (Discs large 5) [DRSC02964] resulted in: z-score, replicate 1 = 2.8. Depletion of CG14102 [DRSC10103] gave: z-score, replicate 1 = -0.2. MESK2 + CG10494 [DRSC04259] scored z-score, replicate 1 = -0.3. For CG9646 [DRSC07342], the values are z-score, replicate 1 = -0.3. With knock-down of CG7126 [DRSC16201] the results were z-score, replicate 1 = -0.4. With knock-down of Sirt7 (Sirtuin 7) [DRSC14294] the results were z-score, replicate 1 = -0.1.

For CG12112 [DRSC17809] the deposit lists z-score, replicate 1 = -0.4. Silencing of CG10597 [DRSC19357] resulted in: z-score, replicate 1 = 0.1. Ten-a (Tenascin accessory) [DRSC18924] showed z-score, replicate 1 = -0.3. Ten-a (Tenascin accessory) [DRSC19496] scored z-score, replicate 1 = 0.7. After knock-down of Ten-a (Tenascin accessory) [DRSC19700], the record shows z-score, replicate 1 = -0.2. Ten-a (Tenascin accessory) [DRSC19793] showed z-score, replicate 1 = -0.3.

Ten-a (Tenascin accessory) [DRSC19864] gave z-score, replicate 1 = -0.2. With knock-down of Ten-a (Tenascin accessory) [DRSC19865], the record shows z-score, replicate 1 = -0.3. Silencing of Ten-a (Tenascin accessory) [DRSC20290] came out at: z-score, replicate 1 = -0.4.

Reformatted: 3 of the entries above.
| target gene | DRSC id | z-score, replicate 1 |
| --- | --- | --- |
| UQCR-6.4 (Ubiquinol-cytochrome c reductase 6.4 kDa subunit) | DRSC06454 | -0.1 |
| Pp1alpha-96A (Protein phosphatase 1alpha at 96A) | DRSC16795 | -0.3 |
| CCKLR-17D1 (Cholecystokinin-like receptor at 17D1) | DRSC20010 | -0.3 |
